# Reference: the supplement of paper PMC8728848
# The list shows a part of the results.
# B1: SAOUHSC 02783 (Staphylococcus aureus), Q5HD69 (protein)
# chain: MIHSKKLTLGICLVLLIILIVGYVIMTKTNGRNAQIKDTFNQTLKLYPTKNLDDFYDKEGFRDQEFKKGDKGTWIVNSEMVIEPKGKDMETRGMVLYINRNTRTTKGYYFISEMTDDSNGRPKDDEKRYPVKMEHNKIIPTKPLPNDKLKKEIENFKFFVQYGNFKDINDYKDGDISYNPNVPSYSAKYQLNNDDYNVQQLRKRYDIPTKQAPKLLLKGDGDLKGSSVGSRSLEFTFVENKEENIYFTDSVQYTPSEDTRYESN
# What was measured:
# Assay in all cases: glycan array binding signal (z-score within array); higher = stronger binding
# Settings in all cases: glycan notation: IUPAC condensed, linker removed
# [1] = molecular target: Gal(b1-2)Gal
# How it was run: (§1)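 Glycan array binding is given as a within-array Z-score, which can be read as non-binding when negative. The arrays, 3228 of them, came from the Consortium for Functional Glycomics database and were retained only where the protein sequence was available. Z-scores were averaged across arrays of the same protein sequence at different concentrations or buffers and across linkers.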
# [2] = molecular target: Gal(b1-3)Gal
# How it was run: as §1
# [3] = molecular target: Gal(b1-3)Gal(b1-4)GlcNAc
# How it was run: as §1
# [4] = molecular target: Gal(b1-3)GalNAc
# How it was run: as §1
# [5] = molecular target: Gal(b1-3)GalNAc(a1-3)[Fuc(a1-2)]Gal(b1-4)Glc
# How it was run: as §1
# [6] = molecular target: Gal(b1-3)GalNAc(a1-3)[Fuc(a1-2)]Gal(b1-4)GlcNAc
# How it was run: as §1
# [7] = molecular target: Gal(b1-3)GalNAc(b1-3)Gal
# How it was run: as §1
# [8] = molecular target: Gal(b1-3)GalNAc(b1-3)Gal(a1-4)Gal(b1-4)Glc
# How it was run: as §1
# [9] = molecular target: Gal(b1-3)GalNAc(b1-4)Gal(b1-4)Glc
# How it was run: as §1
# [10] = molecular target: Gal(b1-3)GalNAc(b1-4)[Neu5Ac(a2-3)]Gal(b1-4)Glc
# How it was run: as §1
# [11] = molecular target: Gal(b1-3)GlcNAc
# How it was run: as §1
# [12] = molecular target: Gal(b1-3)GlcNAc(a1-3)Gal(b1-4)GlcNAc
# How it was run: as §1
# [13] = molecular target: Gal(b1-3)GlcNAc(a1-6)Gal(b1-4)GlcNAc
# How it was run: as §1
# [14] = molecular target: Gal(b1-3)GlcNAc(b1-2)Man
# How it was run: as §1
# [15] = molecular target: Gal(b1-3)GlcNAc(b1-2)Man(a1-3)[Gal(b1-3)GlcNAc(b1-2)Man(a1-6)]Man(b1-4)GlcNAc(b1-4)GlcNAc
# How it was run: as §1
# [16] = molecular target: Gal(b1-3)GlcNAc(b1-2)Man(a1-3)[Gal(b1-3)GlcNAc(b1-2)Man(a1-6)]Man(b1-4)GlcNAc(b1-4)[Fuc(a1-6)]GlcNAc
# How it was run: as §1
# [17] = molecular target: Gal(b1-3)GlcNAc(b1-2)Man(a1-3)[GlcNAc(b1-4)][Gal(b1-3)GlcNAc(b1-2)Man(a1-6)]Man(b1-4)GlcNAc(b1-4)GlcNAc
# How it was run: as §1
# [18] = molecular target: Gal(b1-3)GlcNAc(b1-2)[Gal(b1-3)GlcNAc(b1-6)]Man(a1-6)[Gal(b1-3)GlcNAc(b1-2)Man(a1-3)]Man(b1-4)GlcNAc(b1-4)GlcNAc
# How it was run: as §1
# [19] = molecular target: Gal(b1-3)GlcNAc(b1-3)Gal(b1-3)GlcNAc
# How it was run: as §1
# [20] = molecular target: Gal(b1-3)GlcNAc(b1-3)Gal(b1-4)Glc
# How it was run: as §1
# [21] = molecular target: Gal(b1-3)GlcNAc(b1-3)Gal(b1-4)GlcNAc
# How it was run: as §1
# [22] = molecular target: Gal(b1-3)GlcNAc(b1-3)Gal(b1-4)GlcNAc(b1-2)Man(a1-3)[Gal(b1-3)GlcNAc(b1-3)Gal(b1-4)GlcNAc(b1-2)Man(a1-6)]Man(b1-4)GlcNAc(b1-4)GlcNAc
# How it was run: as §1
# [23] = molecular target: Gal(b1-3)GlcNAc(b1-3)Gal(b1-4)GlcNAc(b1-2)[Gal(b1-3)GlcNAc(b1-3)Gal(b1-4)GlcNAc(b1-6)]Man(a1-6)[Gal(b1-3)GlcNAc(b1-3)Gal(b1-4)GlcNAc(b1-2)Man(a1-3)]Man(b1-4)GlcNAc(b1-4)[Fuc(a1-6)]GlcNAc
# How it was run: as §1
# [24] = molecular target: Gal(b1-3)GlcNAc(b1-3)Gal(b1-4)GlcNAc(b1-3)Gal(b1-4)GlcNAc(b1-2)[Gal(b1-3)GlcNAc(b1-3)Gal(b1-4)GlcNAc(b1-3)Gal(b1-4)GlcNAc(b1-6)]Man(a1-6)[Gal(b1-3)GlcNAc(b1-3)Gal(b1-4)GlcNAc(b1-3)Gal(b1-4)GlcNAc(b1-2)Man(a1-3)]Man(b1-4)GlcNAc(b1-4)[Fuc(a1-6)]GlcNAc
# How it was run: as §1
# [25] = molecular target: Gal(b1-3)GlcNAc(b1-3)Gal(b1-4)GlcNAc(b1-6)[Gal(b1-3)GlcNAc(b1-3)]Gal(b1-4)Glc
# How it was run: as §1
# [26] = molecular target: Gal(b1-3)GlcNAc(b1-3)Gal(b1-4)[Fuc(a1-3)]GlcNAc
# How it was run: as §1
# [27] = molecular target: Gal(b1-3)GlcNAc(b1-3)Gal(b1-4)[Fuc(a1-3)]GlcNAc(b1-6)[Gal(b1-3)GlcNAc(b1-3)]Gal(b1-4)Glc
# How it was run: as §1
# [28] = molecular target: Gal(b1-3)GlcNAc(b1-3)GalNAc
# How it was run: as §1
# [29] = molecular target: Gal(b1-3)GlcNAc(b1-6)Gal(b1-4)GlcNAc
# How it was run: as §1
# [30] = molecular target: Gal(b1-3)GlcNAc(b1-6)GalNAc
# How it was run: as §1
# [31] = molecular target: Gal(b1-3)GlcNAc(b1-6)[Gal(b1-3)]GalNAc
# How it was run: as §1
# [32] = molecular target: Gal(b1-3)GlcNAc6S
# How it was run: as §1
# [33] = molecular target: Gal(b1-3)[Fuc(a1-4)]GlcNAc
# How it was run: as §1
# [34] = molecular target: Gal(b1-3)[Fuc(a1-4)]GlcNAc(b1-2)Man
# How it was run: as §1
# [35] = molecular target: Gal(b1-3)[Fuc(a1-4)]GlcNAc(b1-2)Man(a1-3)[Gal(b1-3)[Fuc(a1-4)]GlcNAc(b1-2)Man(a1-6)]Man(b1-4)GlcNAc(b1-4)[Fuc(a1-6)]GlcNAc
# How it was run: as §1
# [36] = molecular target: Gal(b1-3)[Fuc(a1-4)]GlcNAc(b1-3)Gal(b1-3)[Fuc(a1-4)]GlcNAc
# How it was run: as §1
# [37] = molecular target: Gal(b1-3)[Fuc(a1-4)]GlcNAc(b1-3)Gal(b1-4)[Fuc(a1-3)]GlcNAc
# How it was run: as §1
# [38] = molecular target: Gal(b1-3)[Fuc(a1-4)]GlcNAc(b1-6)GalNAc
# How it was run: as §1
# [39] = molecular target: Gal(b1-3)[GlcNAc(b1-6)]GalNAc
# How it was run: as §1
# [40] = molecular target: Gal(b1-3)[Neu5Ac(a2-6)]GalNAc
# How it was run: as §1
# [41] = molecular target: Gal(b1-3)[Neu5Ac(a2-6)]GlcNAc(b1-4)Gal(b1-4)Glc
# How it was run: as §1
# [42] = molecular target: Gal(b1-3)[Neu5Ac(b2-6)]GalNAc
# How it was run: as §1
# [43] = molecular target: Gal(b1-4)Gal
# How it was run: as §1
# [44] = molecular target: Gal(b1-4)GalNAc(a1-3)[Fuc(a1-2)]Gal(b1-4)GlcNAc
# How it was run: as §1
# [45] = molecular target: Gal(b1-4)GalNAc(b1-3)[Fuc(a1-2)]Gal(b1-4)GlcNAc
# How it was run: as §1
binder,measurement,setting,value
B1,glycan array binding signal (z-score),[1],-0.647
same,glycan array binding signal (z-score),[2],0.581
same,glycan array binding signal (z-score),[3],-0.045
same,glycan array binding signal (z-score),[4],-0.367
same,glycan array binding signal (z-score),[5],0.687
same,glycan array binding signal (z-score),[6],-1.73
same,glycan array binding signal (z-score),[7],-0.932
same,glycan array binding signal (z-score),[8],0.397
same,glycan array binding signal (z-score),[9],-0.054
same,glycan array binding signal (z-score),[10],-0.478
same,glycan array binding signal (z-score),[11],0.236
same,glycan array binding signal (z-score),[12],0.557
same,glycan array binding signal (z-score),[13],-0.724
same,glycan array binding signal (z-score),[14],-0.642
same,glycan array binding signal (z-score),[15],-0.607
same,glycan array binding signal (z-score),[16],0.331
same,glycan array binding signal (z-score),[17],3.09
same,glycan array binding signal (z-score),[18],-0.653
same,glycan array binding signal (z-score),[19],-1.32
same,glycan array binding signal (z-score),[20],-0.527
same,glycan array binding signal (z-score),[21],0.894
same,glycan array binding signal (z-score),[22],-1.28
same,glycan array binding signal (z-score),[23],0.178
same,glycan array binding signal (z-score),[24],-0.241
same,glycan array binding signal (z-score),[25],0.465
same,glycan array binding signal (z-score),[26],0.724
same,glycan array binding signal (z-score),[27],0.299
same,glycan array binding signal (z-score),[28],-0.237
same,glycan array binding signal (z-score),[29],-0.152
same,glycan array binding signal (z-score),[30],-0.347
same,glycan array binding signal (z-score),[31],-0.318
same,glycan array binding signal (z-score),[32],0.915
same,glycan array binding signal (z-score),[33],0.169
same,glycan array binding signal (z-score),[34],2.5
same,glycan array binding signal (z-score),[35],1.82
same,glycan array binding signal (z-score),[36],-0.547
same,glycan array binding signal (z-score),[37],0.001
same,glycan array binding signal (z-score),[38],0.425
same,glycan array binding signal (z-score),[39],-0.308
same,glycan array binding signal (z-score),[40],0
same,glycan array binding signal (z-score),[41],-1.05
same,glycan array binding signal (z-score),[42],-0.3
same,glycan array binding signal (z-score),[43],0.435
same,glycan array binding signal (z-score),[44],-0.306
same,glycan array binding signal (z-score),[45],-1.95

# An excerpt of these results, as tab-separated lines:
binder	measurement	setting	value
B1	glycan array binding signal (z-score)	[6]	-1.73
same	glycan array binding signal (z-score)	[11]	0.236
same	glycan array binding signal (z-score)	[14]	-0.642
same	glycan array binding signal (z-score)	[16]	0.331
same	glycan array binding signal (z-score)	[20]	-0.527
same	glycan array binding signal (z-score)	[22]	-1.28
same	glycan array binding signal (z-score)	[23]	0.178
same	glycan array binding signal (z-score)	[31]	-0.318
same	glycan array binding signal (z-score)	[32]	0.915
same	glycan array binding signal (z-score)	[34]	2.5
same	glycan array binding signal (z-score)	[39]	-0.308
same	glycan array binding signal (z-score)	[42]	-0.3
same	glycan array binding signal (z-score)	[43]	0.435
